Measured values from PMC3742192.
These are yes or no findings as the source states them, for the method shown. In cells and extracts the contact can be indirect. Some results given as binding are weak or reduced against the parent protein; the word gives no strength.

Protein sequences, listed by entry. Tags and fused reporters are not part of them.
UniProt P46940: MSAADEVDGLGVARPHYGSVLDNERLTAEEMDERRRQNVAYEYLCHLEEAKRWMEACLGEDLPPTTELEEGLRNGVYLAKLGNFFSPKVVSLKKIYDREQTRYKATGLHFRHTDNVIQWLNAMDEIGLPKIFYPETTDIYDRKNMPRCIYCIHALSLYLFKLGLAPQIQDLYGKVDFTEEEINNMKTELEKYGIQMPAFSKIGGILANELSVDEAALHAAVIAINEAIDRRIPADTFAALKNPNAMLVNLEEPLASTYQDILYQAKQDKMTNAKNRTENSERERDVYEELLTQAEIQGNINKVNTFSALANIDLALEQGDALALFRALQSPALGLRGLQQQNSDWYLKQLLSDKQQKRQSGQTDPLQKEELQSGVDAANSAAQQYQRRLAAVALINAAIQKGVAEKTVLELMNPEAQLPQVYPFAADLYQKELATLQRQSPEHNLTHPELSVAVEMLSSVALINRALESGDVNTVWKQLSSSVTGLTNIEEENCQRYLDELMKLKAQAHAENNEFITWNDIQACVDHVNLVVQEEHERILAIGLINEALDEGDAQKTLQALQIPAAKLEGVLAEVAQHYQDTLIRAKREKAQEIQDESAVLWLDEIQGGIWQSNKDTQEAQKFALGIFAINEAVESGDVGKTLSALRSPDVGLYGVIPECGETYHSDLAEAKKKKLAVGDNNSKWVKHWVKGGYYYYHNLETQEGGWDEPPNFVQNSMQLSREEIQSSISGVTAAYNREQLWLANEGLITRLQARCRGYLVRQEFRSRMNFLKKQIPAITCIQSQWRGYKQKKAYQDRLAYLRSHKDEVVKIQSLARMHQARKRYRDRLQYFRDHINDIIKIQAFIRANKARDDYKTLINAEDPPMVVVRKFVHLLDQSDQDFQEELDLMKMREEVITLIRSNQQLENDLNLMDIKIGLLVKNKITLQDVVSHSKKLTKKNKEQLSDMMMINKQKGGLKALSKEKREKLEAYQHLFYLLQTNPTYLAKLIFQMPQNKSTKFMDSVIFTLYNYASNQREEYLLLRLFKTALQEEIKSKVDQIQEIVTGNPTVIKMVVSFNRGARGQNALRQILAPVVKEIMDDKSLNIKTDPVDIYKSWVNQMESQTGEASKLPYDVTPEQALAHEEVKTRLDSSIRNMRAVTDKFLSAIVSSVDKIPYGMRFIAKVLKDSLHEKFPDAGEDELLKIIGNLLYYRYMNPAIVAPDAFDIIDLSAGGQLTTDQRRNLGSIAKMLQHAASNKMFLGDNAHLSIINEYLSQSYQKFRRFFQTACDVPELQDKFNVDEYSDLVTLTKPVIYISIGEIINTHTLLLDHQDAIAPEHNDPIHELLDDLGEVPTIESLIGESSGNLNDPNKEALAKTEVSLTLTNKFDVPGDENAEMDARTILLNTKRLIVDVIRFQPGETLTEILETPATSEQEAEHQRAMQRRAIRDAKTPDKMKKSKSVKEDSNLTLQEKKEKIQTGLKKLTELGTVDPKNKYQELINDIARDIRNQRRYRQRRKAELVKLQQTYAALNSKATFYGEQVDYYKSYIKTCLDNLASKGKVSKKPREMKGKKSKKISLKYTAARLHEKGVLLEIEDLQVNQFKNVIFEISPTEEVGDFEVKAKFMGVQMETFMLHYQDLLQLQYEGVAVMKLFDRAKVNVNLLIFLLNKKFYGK

T1: p120-catenin (human (endogenous in HUVEC)) (UniProt O60716)
T1 sequence: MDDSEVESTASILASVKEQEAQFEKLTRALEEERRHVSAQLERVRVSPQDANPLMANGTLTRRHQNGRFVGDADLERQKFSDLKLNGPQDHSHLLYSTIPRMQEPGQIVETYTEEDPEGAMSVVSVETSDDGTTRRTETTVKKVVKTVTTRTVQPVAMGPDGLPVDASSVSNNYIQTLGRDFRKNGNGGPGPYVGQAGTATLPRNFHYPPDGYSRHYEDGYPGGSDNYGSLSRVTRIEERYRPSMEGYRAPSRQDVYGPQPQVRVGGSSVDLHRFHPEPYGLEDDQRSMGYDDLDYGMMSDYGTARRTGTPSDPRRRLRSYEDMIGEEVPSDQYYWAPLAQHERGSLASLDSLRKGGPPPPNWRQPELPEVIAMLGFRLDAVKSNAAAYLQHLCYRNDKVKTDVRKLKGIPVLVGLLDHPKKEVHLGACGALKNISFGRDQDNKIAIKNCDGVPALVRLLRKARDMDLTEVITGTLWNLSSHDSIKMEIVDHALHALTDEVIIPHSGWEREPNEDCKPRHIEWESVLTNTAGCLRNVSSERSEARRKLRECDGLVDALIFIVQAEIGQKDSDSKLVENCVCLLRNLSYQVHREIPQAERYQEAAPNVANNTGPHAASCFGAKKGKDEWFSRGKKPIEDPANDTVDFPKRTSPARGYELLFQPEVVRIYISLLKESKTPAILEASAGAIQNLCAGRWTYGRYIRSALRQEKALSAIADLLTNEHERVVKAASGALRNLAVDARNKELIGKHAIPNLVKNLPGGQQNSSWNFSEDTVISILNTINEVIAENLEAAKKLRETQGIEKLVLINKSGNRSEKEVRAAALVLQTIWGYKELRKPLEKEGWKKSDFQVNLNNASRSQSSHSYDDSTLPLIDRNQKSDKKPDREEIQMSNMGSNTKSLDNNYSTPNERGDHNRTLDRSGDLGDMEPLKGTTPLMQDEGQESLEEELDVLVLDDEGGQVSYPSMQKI

T2: β-catenin (human (endogenous in HUVEC)), P35222
T2 chain: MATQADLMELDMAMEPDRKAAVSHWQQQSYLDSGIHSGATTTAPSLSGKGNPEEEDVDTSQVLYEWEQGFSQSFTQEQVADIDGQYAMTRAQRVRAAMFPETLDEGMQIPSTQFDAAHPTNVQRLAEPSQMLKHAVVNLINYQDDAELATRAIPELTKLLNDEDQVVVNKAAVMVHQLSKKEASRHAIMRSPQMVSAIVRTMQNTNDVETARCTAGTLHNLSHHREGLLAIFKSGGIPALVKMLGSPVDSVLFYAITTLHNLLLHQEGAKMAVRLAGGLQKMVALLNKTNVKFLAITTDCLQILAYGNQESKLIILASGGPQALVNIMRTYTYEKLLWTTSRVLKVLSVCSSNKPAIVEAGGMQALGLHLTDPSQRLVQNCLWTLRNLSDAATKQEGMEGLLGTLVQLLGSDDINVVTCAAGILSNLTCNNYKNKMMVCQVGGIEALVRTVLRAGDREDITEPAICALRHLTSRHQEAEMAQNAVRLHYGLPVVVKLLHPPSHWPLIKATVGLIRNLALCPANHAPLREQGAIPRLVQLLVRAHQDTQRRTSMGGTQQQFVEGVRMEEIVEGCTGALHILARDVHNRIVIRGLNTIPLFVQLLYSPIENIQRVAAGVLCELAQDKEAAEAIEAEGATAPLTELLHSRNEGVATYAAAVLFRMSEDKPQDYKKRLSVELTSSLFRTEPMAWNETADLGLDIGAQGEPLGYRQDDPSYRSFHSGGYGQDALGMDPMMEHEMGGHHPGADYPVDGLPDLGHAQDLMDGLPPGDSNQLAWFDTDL


Legend:
[1] = biological target: IQGAP1 (human (endogenous in HUVEC)) (UniProt P46940); assay: co-IP; control HUVEC lysate (30 mM HEPES pH 7.4, 50 mM NaCl, 1% Triton X-100, 10% glycerol, 1 mM EGTA) immunoprecipitated overnight at 4 °C with an antibody to IQGAP1 (IgG as control), protein A- and G-Sepharose; blotted for adherens junction proteins
[2] = biological target: T1, p120-catenin (human (endogenous in HUVEC)); assay: co-IP; lysates of HUVECs transfected with IQGAP1 siRNA or scrambled siRNA for 48 h, immunoprecipitated with antibodies to p120 or β-catenin; blotted for VE-cadherin, N-cadherin, β- and α-catenin
[3] = biological target: T2, β-catenin (human (endogenous in …)); assay: as above; conditions: remark: other sources report otherwise

Row | binding [1] | binding [2] | binding [3] | Molecule
1 | binds | binds | – | β-catenin (from UniProt P35222 1-781)
2 | – | – | binds | vascular endothelial (VE)-cadherin, P33151 48-784 (protein) DWIWNQMHIDEEKNTSLPHHVGKIKSSVSRKNAKYLLKGEYVGKVFRVDAETGDVFAIERLDRENISEYHLTAVIVDKDTGENLETPSSFTIKVHDVNDNWPVFTHRLFNASVPESSAVGTSVISVTAVDADDPTVGDHASVMYQILKGKEYFAIDNSGRIITITKSLDREKQARYEIVVEARDAQGLRGDSGTATVLVTLQDINDNFPFFTQTKYTFVVPEDTRVGTSVGSLFVEDPDEPQNRMTKYSILRGDYQDAFTIETNPAHNEGIIKPMKPLDYEYIQQYSFIVEATDPTIDLRYMSPPAGNRAQVIINITDVDEPPIFQQPFYHFQLKENQKKPLIGTVLAMDPDAARHSIGYSIRRTSDKGQFFRVTKKGDIYNEKELDREVYPWYNLTVEAKELDSTGTPTGKESIVQVHIEVLDENDNAPEFAKPYQPKVCENAVHGQLVLQISAIDKDITPRNVKFKFILNTENNFTLTDNHDNTANITVKYGQFDREHTKVHFLPVVISDNGMPSRTGTSTLTVAVCKCNEQGEFTFCEDMAAQVGVSIQAVVAILLCILTITVITLLIFLRRRLRKQARAHGKSVPEIHEQLVTYDEEGGGEMDTTSYDVSVLNSVRRGGAKPPRPALDARPSLYAQVQKPPRHAPGAHGGPGEMAAMIEVKKDEADHDGDGPPYDTLHIYGYEGSESIAESLSSLGTDSSDSDVDYDFLNDWGPRFKMLAELYGSDPREELLY
3 | binds | – | – | γ-catenin (protein, UniProt P14923 1-745) MEVMNLMEQPIKVTEWQQTYTYDSGIHSGANTCVPSVSSKGIMEEDEACGRQYTLKKTTTYTQGVPPSQGDLEYQMSTTARAKRVREAMCPGVSGEDSSLLLATQVEGQATNLQRLAEPSQLLKSAIVHLINYQDDAELATRALPELTKLLNDEDPVVVTKAAMIVNQLSKKEASRRALMGSPQLVAAVVRTMQNTSDLDTARCTTSILHNLSHHREGLLAIFKSGGIPALVRMLSSPVESVLFYAITTLHNLLLYQEGAKMAVRLADGLQKMVPLLNKNNPKFLAITTDCLQLLAYGNQESKLIILANGGPQALVQIMRNYSYEKLLWTTSRVLKVLSVCPSNKPAIVEAGGMQALGKHLTSNSPRLVQNCLWTLRNLSDVATKQEGLESVLKILVNQLSVDDVNVLTCATGTLSNLTCNNSKNKTLVTQNSGVEALIHAILRAGDKDDITEPAVCALRHLTSRHPEAEMAQNSVRLNYGIPAIVKLLNQPNQWPLVKATIGLIRNLALCPANHAPLQEAAVIPRLVQLLVKAHQDAQRHVAAGTQQPYTDGVRMEEIVEGCTGALHILARDPMNRMEIFRLNTIPLFVQLLYSSVENIQRVAAGVLCELAQDKEAADAIDAEGASAPLMELLHSRNEGTATYAAAVLFRISEDKNPDYRKRVSVELTNSLFKHDPAAWEAAQSMIPINEPYGDDMDATYRPMYSSDVPLDPLEMHMDMDGDYPIDTYSDGLRPPYPTADHMLA

Second part, the molecule before the results:

Row | Molecule | binding [1] | binding [2] | binding [3]
4 | vascular endothelial (VE)-cadherin (protein, UniProt P33151 48-784) DWIWNQMHIDEEKNTSLPHHVGKIKSSVSRKNAKYLLKGEYVGKVFRVDAETGDVFAIERLDRENISEYHLTAVIVDKDTGENLETPSSFTIKVHDVNDNWPVFTHRLFNASVPESSAVGTSVISVTAVDADDPTVGDHASVMYQILKGKEYFAIDNSGRIITITKSLDREKQARYEIVVEARDAQGLRGDSGTATVLVTLQDINDNFPFFTQTKYTFVVPEDTRVGTSVGSLFVEDPDEPQNRMTKYSILRGDYQDAFTIETNPAHNEGIIKPMKPLDYEYIQQYSFIVEATDPTIDLRYMSPPAGNRAQVIINITDVDEPPIFQQPFYHFQLKENQKKPLIGTVLAMDPDAARHSIGYSIRRTSDKGQFFRVTKKGDIYNEKELDREVYPWYNLTVEAKELDSTGTPTGKESIVQVHIEVLDENDNAPEFAKPYQPKVCENAVHGQLVLQISAIDKDITPRNVKFKFILNTENNFTLTDNHDNTANITVKYGQFDREHTKVHFLPVVISDNGMPSRTGTSTLTVAVCKCNEQGEFTFCEDMAAQVGVSIQAVVAILLCILTITVITLLIFLRRRLRKQARAHGKSVPEIHEQLVTYDEEGGGEMDTTSYDVSVLNSVRRGGAKPPRPALDARPSLYAQVQKPPRHAPGAHGGPGEMAAMIEVKKDEADHDGDGPPYDTLHIYGYEGSESIAESLSSLGTDSSDSDVDYDFLNDWGPRFKMLAELYGSDPREELLY | binds | binds | –
5 | p120-catenin (protein, UniProt O60716 1-968) MDDSEVESTASILASVKEQEAQFEKLTRALEEERRHVSAQLERVRVSPQDANPLMANGTLTRRHQNGRFVGDADLERQKFSDLKLNGPQDHSHLLYSTIPRMQEPGQIVETYTEEDPEGAMSVVSVETSDDGTTRRTETTVKKVVKTVTTRTVQPVAMGPDGLPVDASSVSNNYIQTLGRDFRKNGNGGPGPYVGQAGTATLPRNFHYPPDGYSRHYEDGYPGGSDNYGSLSRVTRIEERYRPSMEGYRAPSRQDVYGPQPQVRVGGSSVDLHRFHPEPYGLEDDQRSMGYDDLDYGMMSDYGTARRTGTPSDPRRRLRSYEDMIGEEVPSDQYYWAPLAQHERGSLASLDSLRKGGPPPPNWRQPELPEVIAMLGFRLDAVKSNAAAYLQHLCYRNDKVKTDVRKLKGIPVLVGLLDHPKKEVHLGACGALKNISFGRDQDNKIAIKNCDGVPALVRLLRKARDMDLTEVITGTLWNLSSHDSIKMEIVDHALHALTDEVIIPHSGWEREPNEDCKPRHIEWESVLTNTAGCLRNVSSERSEARRKLRECDGLVDALIFIVQAEIGQKDSDSKLVENCVCLLRNLSYQVHREIPQAERYQEAAPNVANNTGPHAASCFGAKKGKDEWFSRGKKPIEDPANDTVDFPKRTSPARGYELLFQPEVVRIYISLLKESKTPAILEASAGAIQNLCAGRWTYGRYIRSALRQEKALSAIADLLTNEHERVVKAASGALRNLAVDARNKELIGKHAIPNLVKNLPGGQQNSSWNFSEDTVISILNTINEVIAENLEAAKKLRETQGIEKLVLINKSGNRSEKEVRAAALVLQTIWGYKELRKPLEKEGWKKSDFQVNLNNASRSQSSHSYDDSTLPLIDRNQKSDKKPDREEIQMSNMGSNTKSLDNNYSTPNERGDHNRTLDRSGDLGDMEPLKGTTPLMQDEGQESLEEELDVLVLDDEGGQVSYPSMQKI | binds | – | –
